# Results reported in PubChem BioAssay AID504467 (National Center for Advancing Translational Sciences (NCATS), 2011).
# In all, about 330,000 compounds went through this assay and about 7,700 (2.3%) were called active. Inconclusive results, whose numbers are uncertain, are shown with a selection of clear calls. Calls follow the shape of the dose curve; as a rule, active = well fitted inhibition curve with a large enough effect; inconclusive = small, poorly fitted or top-dose-only effect, or effect the other way; inactive = flat fitted curve, though single readings scatter. Potencies beside an inconclusive call are fits to weak or partial responses and may not hold up.
# Assay: qHTS screen for small molecules that inhibit ELG1-dependent DNA repair in human embryonic kidney (HEK293T) cells expressing luciferase-tagged ELG1; also: nearly all actives have a fitted effect of over 55% in size
# Settings: HEK293T ELG1-luciferase reporter, luminescence, 16 h, DNA damage induced by 5-fluorouridine; activity change, negative = inhibition: at 46.1 µM (top of the series)
# Procedure, shortened: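 Reporter activity after DNA damage by 5-fluorouridine is monitored. Compound-treated cells incubate 16 hr at 37 °C, then ONE-Glo is added for 30 min before luminescence reading.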
# % is scaled to controls: 0 for no effect and ±100 for the full control effect; potency is read from the fitted curve at half-maximal effect.
SMILES,Potency,"activity change, negative = inhibition"
CCN(CC)CCCN(Cc1cc2cc(OC)ccc2[nH]c1=O)C(=O)Nc1ccccc1,"inconclusive: 20.6 µM [activator, single point]",
CC(=O)Nc1ccc(S(=O)(=O)N(C)c2ccc(OCC(=O)Nc3ccccc3C(C)=O)cc2)cc1,"inconclusive: 13 µM [inhibitor, partial curve, poor fit]",
O=C(Cc1ccc(Cl)cc1)Nc1ccncc1,"inconclusive: 2.59 µM [inhibitor, partial curve]",
O=C(COC(=O)c1cc(-c2ccco2)nc2ccccc12)NCc1ccccc1,,inactive: -8.05%
Cc1cc(C(=O)CN2C(=O)NC3(CCCCCC3)C2=O)c(C)n1C,"inconclusive: 25.9 µM [activator, partial curve, poor fit]",
N#Cc1ccsc1NC(=O)c1ccccn1,"inconclusive: 9.2 µM [activator, partial curve]",
CC(C)(C)c1ccc(CN2N=Nc3ccccc3S2(=O)=O)cc1,"inconclusive: 29.1 µM [inhibitor, single point]",
O=C(O)/C=C/C(=O)Nc1ccccc1C(=O)Nc1ccccc1,"inconclusive: 20.6 µM [activator, single point]",
Cc1cccc(C(=O)OCC(=O)N(CC(C)C)c2c(N)n(Cc3ccccc3)c(=O)[nH]c2=O)c1O,"inconclusive: 6.51 µM [inhibitor, single point]",
O=c1ccc(S(=O)(=O)N2CCCC2)cn1Cc1ccc(F)cc1,,inactive: 1.12%
CC1CC(C)CN(CC(=O)N2CCCc3c2c(=O)oc2ccc(OCc4ccccc4)cc32)C1 (stereo not given),"inconclusive: 29.1 µM [inhibitor, single point]",
CN(C)c1cccc(C(=O)Nc2cccc(S(=O)(=O)NC3=NCCC3)c2)c1,"inconclusive: 16.4 µM [activator, partial curve]",
CC1CCCCC1NC(=O)c1ccc2c(c1)[nH]c(=O)n2C1CCCC1 (stereo not given),"inconclusive: 29.1 µM [inhibitor, single point]",
CC(C)(C)c1ccc(COn2ccnc2)cc1,,inactive: 4.57%
Cc1ccc(S(=O)(=O)ON2C(=O)c3ccccc3C2=O)c(C)c1,,inactive: -21.7%
Cc1ccc(NC(=O)CCc2c(C)nn(-c3ccc(N4CCCCC4)nn3)c2C)cc1,"inconclusive: 4.61 µM [activator, single point]",
COc1ccc(Cl)cc1NC(=S)N1CCCC1,,inactive: -6.54%
COc1ccc(C(=O)c2cc(C(C)=O)c(Nc3ccccc3)s2)cc1,"inconclusive: 32.6 µM [inhibitor, partial curve, poor fit]",
COc1cccc(C(=O)c2c(-c3ccccc3)ncc3cc(OC)c(OC)cc23)c1,"inconclusive: 29.1 µM [inhibitor, single point]",
COc1ccc2oc(-c3ccco3)cc(=O)c2c1,"inconclusive: 5.8 µM [activator, partial curve]",
CC1(C)Oc2ccc3ccc(=O)oc3c2/C(=C/NNC(N)=S)C1=O,,inactive: 12%
COc1ccc(C(=O)N[C@H](C(=O)Nc2ccc(OC)nc2)C(C)C)cc1,"inconclusive: 20.6 µM [activator, single point]",
Cc1nc2sc3c(c2c(=O)o1)CCCC3,,inactive: 2.34%
O=C(NC(=S)Nc1ccc(Br)cc1F)C1CCCCC1,"inconclusive: 11.6 µM [activator, partial curve]",

SMILES,Potency,"activity change, negative = inhibition"
CCCn1c(-c2cc(OC)c(OC)c(OC)c2)nc2nc3ccccc3nc21,active: 16.4 µM,
Cc1ccc(NC(=S)NC2CCN(Cc3ccccc3)CC2)cc1,,inactive: -10.9%
Cc1nc(NC(=O)c2cc3ccccc3o2)sc1C,"inconclusive: 0.92 µM [activator, partial curve]",
COc1cccc(C(=O)NC2CCCc3ccccc32)c1OC (stereo not given),,inactive: 0.491%
COc1ccccc1N(C)S(=O)(=O)c1ccc(Cl)c(C(=O)NCCCN2CCOCC2)c1,,inactive: -12.8%
CC(=O)Nc1ccc(S(=O)(=O)Oc2cccc(N3C(=O)C4CC=CCC4C3=O)c2)cc1 (stereo not given),active: 23.1 µM,
C=CCS(=O)(=O)c1nc2ccccc2s1,"inconclusive: 9.2 µM [inhibitor, single point]",
CCC(C)NC(=O)C1CC(c2ccc(OC)cc2)=NO1 (stereo not given),"inconclusive: 20.6 µM [activator, single point]",
COCCN(CC(=O)Nc1cccc(C)c1C)C(=O)c1oc2c(Cl)cccc2c1C,"inconclusive: 14.6 µM [inhibitor, partial curve, poor fit]",
O=C(CCS(=O)(=O)Cc1ccccc1)Nc1nnc(C(F)(F)F)s1,,inactive: -20%
CN1CCCN(C(=O)c2cccc3ccccc23)CC1,,inactive: -5.96%
COc1ccc(/C=C/C(=O)NC(=S)N2CCN(C)CC2)cc1,"inconclusive: 1.16 µM [activator, single point]",
O=C(NCCc1ccccc1Cl)C1CCC(=O)N(C2CCCCCC2)C1 (stereo not given),"inconclusive: 14.6 µM [activator, partial curve, poor fit]",
O=C(O)C1CCN(c2ccc([N+](=O)[O-])cc2[N+](=O)[O-])CC1,,inactive: 18.3%
O=C(N/N=C/c1ccc2c(c1)OCO2)c1ccc2ccccc2n1,"inconclusive: 32.6 µM [activator, partial curve, poor fit]",
COc1cccc(N2CCN(C(=O)c3ccc(CS(=O)Cc4ccc(Cl)cc4)o3)CC2)c1 (stereo not given),active: 20.6 µM,
COc1ccc(C(=O)c2ccccc2Cl)cc1,,inactive: -1.5%
Cc1ccc2c(Cl)cc(Cl)c(OCC(=O)NC3CCS(=O)(=O)C3)c2n1 (stereo not given),"inconclusive: 5.17 µM [inhibitor, single point]",
N#Cc1ccc(-c2nc3cc(C#N)c(C#N)cc3nc2-c2ccccc2)cc1C#N,"inconclusive: 6.51 µM [activator, single point]",
CC(=O)c1ccc(N2CCN(C(=O)C3CCN(S(=O)(=O)Cc4ccccc4)CC3)CC2)cc1,active: 18.4 µM,
CCNS(=O)(=O)c1cc(-c2nnc(OC)c3ccccc23)ccc1C,,inactive: -25.6%
CCC(=O)N1CCN(c2ccc(NC(=O)c3ccc(C#N)cc3F)cc2Cl)CC1,"inconclusive: 13 µM [inhibitor, partial curve]",
COc1ccc(C(=O)Nn2c(C)nc3ccccc3c2=O)cc1[N+](=O)[O-],,inactive: -8.41%
COc1ccc(NC(=O)COc2ccc(/C=N/NC(=O)c3cccnc3)cc2OC)cc1,"inconclusive: 29.1 µM [inhibitor, single point]",

SMILES,Potency,"activity change, negative = inhibition"
CCCc1cc(CNC(=O)C2CCC(=O)N(Cc3ccccc3F)C2)on1 (stereo not given),,inactive: 8.75%
Cc1ccc(S(=O)(=O)N2CCCCC2)cc1C(=O)N1CCN(c2ccccn2)CC1,"inconclusive: 23.1 µM [inhibitor, single point]",
O=C(N/N=C/c1cccc([N+](=O)[O-])c1)c1ccccc1-n1cccc1,"inconclusive: 25.9 µM [inhibitor, single point]",
N#Cc1cc2c(=O)n3ccccc3nc2n(-c2ccccc2Cl)c1=O,"inconclusive: 18.3 µM [inhibitor, single point]",
COc1cccc(N2CCN(Cc3nc(N)nc(Nc4ccccc4)n3)CC2)c1,"inconclusive: 29.1 µM [inhibitor, single point]",
CC[n+]1c(/C=C/N(C)c2ccccc2)n(-c2ccccc2)c2ccc(-c3nc4ccccc4s3)cc21,active: 4.11 µM,
COc1ccccc1NC(=O)COc1coc(CN2CCN(c3ccccc3)CC2)cc1=O,,inactive: -11.4%
[O-]/[N+](=C\C=C\c1ccccc1)c1ccccc1,"inconclusive: 10.3 µM [activator, partial curve]",
Cc1cc(C(=O)N/N=C/c2ccc3c(c2)OCO3)c(C)o1,"inconclusive: 16.4 µM [activator, partial curve]",
COc1ccc2cc3cc(C(=O)Nc4ccc5c(c4)OCCO5)oc3nc2c1,"inconclusive: 29.1 µM [activator, single point]",
O=[N+]([O-])c1ccc(N2CCN(S(=O)(=O)c3cnc[nH]3)CC2)cc1,"inconclusive: 23.1 µM [inhibitor, partial curve, poor fit]",
Cc1ccc2c(c1)N(CC(=O)Nc1ccccc1F)C(=O)CO2,,inactive: -14%
COc1ccc2oc(C(=O)c3ccccc3)c(N)c2c1,"inconclusive: 22.4 µM [activator, partial curve, poor fit]",
Nc1nc(CN2CCN(C(=O)c3ccco3)CC2)nc(Nc2cccc(Cl)c2)n1,"inconclusive: 14.6 µM [inhibitor, partial curve, poor fit]",
CCS(=O)(=O)c1cc([N+](=O)[O-])c(Sc2ccccc2N)s1,"inconclusive: 20.6 µM [activator, single point]",
CC(=O)Nc1cccc(NC(=O)CCc2ccccc2)c1,"inconclusive: 18.4 µM [activator, partial curve, poor fit]",
CCOc1ccccc1NC(=O)Cn1nnc(C(=O)Nc2ccccc2Cl)c1N,"inconclusive: 25.9 µM [inhibitor, single point]",
CCOC(=O)N1CCN(C(=O)c2cn(CCOC)c(=O)c3c2c2ccccc2n3C)CC1,"inconclusive: 20.6 µM [inhibitor, partial curve, poor fit]",
O=C(c1ccccc1)N1CCN(CC(O)COCC2CC=CCC2)CC1 (stereo not given),,inactive: -4.8%
COC(=O)C1=CN(Cc2ccc(OC)c(OC)c2)C=C(C(=O)OC)C1c1ccc(F)cc1,"inconclusive: 29.1 µM [inhibitor, single point]",
CN(C)C(=O)c1cn(-c2ccccc2)nc1-c1cccc([N+](=O)[O-])c1,"inconclusive: 25.9 µM [inhibitor, partial curve, poor fit]",
Cc1ccc(OCC(=O)N/N=C\c2c(C)[nH]n(-c3ccccc3)c2=O)c([N+](=O)[O-])c1,"inconclusive: 4.11 µM [inhibitor, single point]",

# Retrieved one by one from the entries so far (4):
SMILES,Potency,"activity change, negative = inhibition"
Cc1ccc2c(c1)N(CC(=O)Nc1ccccc1F)C(=O)CO2,,inactive: -14%
Cc1ccc(S(=O)(=O)N2CCCCC2)cc1C(=O)N1CCN(c2ccccn2)CC1,"inconclusive: 23.1 µM [inhibitor, single point]",
CC(=O)Nc1cccc(NC(=O)CCc2ccccc2)c1,"inconclusive: 18.4 µM [activator, partial curve, poor fit]",
CN(C)C(=O)c1cn(-c2ccccc2)nc1-c1cccc([N+](=O)[O-])c1,"inconclusive: 25.9 µM [inhibitor, partial curve, poor fit]",

# Three entries out of the list, sorted by molecular weight, smallest number first:
SMILES,Potency,"activity change, negative = inhibition"
Cc1ccc2c(c1)N(CC(=O)Nc1ccccc1F)C(=O)CO2,,inactive: -14%
CN(C)C(=O)c1cn(-c2ccccc2)nc1-c1cccc([N+](=O)[O-])c1,"inconclusive: 25.9 µM [inhibitor, partial curve, poor fit]",
N#Cc1cc2c(=O)n3ccccc3nc2n(-c2ccccc2Cl)c1=O,"inconclusive: 18.3 µM [inhibitor, single point]",
